Laboratory results: PubChem BioAssay AID493246 (Drosophila RNAi Screening Center, 2011)
Screen: 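Genome-wide search for dsRNAs that reduce cell number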 (primary screen). Cell system: Drosophila Kc and S2R+ cells. Reagents: long dsRNA against Drosophila genes. Measured: 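Cell number per well after knock-down, printed as raw plate values; calls were based on per-plate z-scores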. Scale: Kc cell number and S2R+ cell number: higher = more cells remaining. Rule for the call: 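Active when the per-plate z-score of cell number is 3 or more in the direction of fewer cells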.
The screen tested about 21,000 reagents; shown is a random part of those with a known target gene and a result. In the full data, 429 (2%) were called active. 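Values are raw and not normalised between plates; calls rest on per-plate z-scores that were not deposited.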 The numbers tell different reagents against one gene apart. No sequences are given here. The record does not give: the amount of reagent, the time to read-out.

| target | dsRNA no. | Kc cell number, rep 1 | Kc cell number, rep 2 | S2R+ cell number, rep 1 | S2R+ cell number, rep 2 | outcome |
| --- | --- | --- | --- | --- | --- | --- |
| Recs1 (GeneID 41724) | 1 | 1.55e6 | 1.46e6 | 1.01e6 | 1.16e6 | inactive |
| CG11629 (GeneID 35431) | 1 | 1.51e6 | 1.60e6 | 1.26e6 | 2.97e5 | inactive |
| Vha16-3 (GeneID 317846) | 1 | 1.25e6 | 1.36e6 | 1.28e6 | 1.39e6 | inactive |
| CG31058 (retired record) (GeneID 43320) | 1 | 1.50e6 | 1.61e6 | 6.78e5 | 7.74e5 | active |
| jar (GeneID 42889) | 1 | 1.44e6 | 1.49e6 | 1.02e6 | 1.14e6 | inactive |
| CG34459 (GeneID 5740101) | 1 | 1.62e6 | 1.64e6 | 1.14e6 | 1.24e6 | inactive |
| Trm7-34 (GeneID 42508) | 1 | 1.29e6 | 1.38e6 | 1.09e6 | 1.18e6 | inactive |
| CG13042 (GeneID 39798) | 1 | 1.58e6 | 1.56e6 | 1.22e6 | 1.32e6 | inactive |
| Or67b (GeneID 39120) | 1 | 1.37e6 | 1.24e6 | 1.22e6 | 1.34e6 | inactive |
| robl22E (GeneID 33412) | 1 | 1.58e6 | 1.60e6 | 1.10e6 | 1.18e6 | inactive |
| Gycalpha99B (GeneID 43493) | 1 | 5.12e5 | – | 7.97e5 | – | inactive |
| PlexB (GeneID 43766) | 1 | 1.58e6 | 1.59e6 | 1.03e6 | 1.17e6 | inactive |
| Panx (GeneID 37434) | 1 | 1.52e6 | 1.61e6 | 1.27e6 | 3.55e5 | inactive |
| CG8064 (GeneID 42196) | 1 | 1.61e6 | 1.71e6 | 1.35e6 | 1.37e6 | inactive |
| CG12885 (GeneID 43308) | 1 | 1.53e6 | 1.64e6 | 9.90e5 | 1.06e6 | inactive |
| CG11656 (GeneID 41600) | 1 | 1.58e6 | 1.64e6 | 1.31e6 | 1.39e6 | inactive |
| CG14006 (GeneID 33802) | 1 | 1.44e6 | 1.38e6 | 1.11e6 | 1.25e6 | inactive |
| Mms19 (GeneID 40626) | 1 | 1.63e6 | 1.71e6 | 1.35e6 | 1.35e6 | inactive |
| AnxB10 (GeneID 33019) | 1 | 1.53e6 | 1.52e6 | 1.07e6 | 1.17e6 | inactive |
| ND-B8 (GeneID 50178) | 1 | 1.52e6 | 1.49e6 | 1.19e6 | 1.29e6 | inactive |
| CG1801 (GeneID 33104) | 1 | 1.66e6 | 1.79e6 | 1.18e6 | 1.38e6 | inactive |
| CG15073 (GeneID 37155) | 1 | 1.70e6 | 1.73e6 | 1.24e6 | 1.38e6 | inactive |
| MED6 (GeneID 44728) | 1 | 1.63e6 | 1.70e6 | 1.20e6 | 1.32e6 | inactive |
| CG32855 (GeneID 318250) | 1 | 1.55e6 | 1.76e6 | 1.11e6 | 1.26e6 | inactive |
| CG8960 (GeneID 38280) | 1 | 1.56e6 | 1.55e6 | 1.11e6 | 1.28e6 | inactive |
| Drsl5 (GeneID 38409) | 1 | 1.55e6 | 1.32e6 | 8.91e5 | 1.07e6 | inactive |
| PK2-R2 (GeneID 41638) | 1 | 1.26e6 | 1.36e6 | 1.07e6 | 1.20e6 | inactive |
| CG13196 (GeneID 36250) | 1 | 1.57e6 | 1.67e6 | 1.35e6 | 1.43e6 | inactive |
| CG7231 (GeneID 34086) | 1 | 1.55e6 | 1.59e6 | 1.10e6 | 1.26e6 | inactive |
| CG12851 (GeneID 37993) | 1 | 1.58e6 | 1.52e6 | 1.24e6 | 1.35e6 | inactive |
| dgrn (GeneID 40725) | 1 | 1.87e6 | 1.87e6 | 1.29e6 | 1.37e6 | inactive |
| nmo (GeneID 38890) | 1 | 1.49e6 | 1.54e6 | 1.13e6 | 1.35e6 | inactive |
| nmo (GeneID 38890) | 2 | 1.36e6 | 1.43e6 | 1.35e6 | 1.34e6 | inactive |
| CAHbeta (GeneID 41070) | 1 | 1.46e6 | 1.57e6 | 1.21e6 | 1.25e6 | inactive |
| CG13999 (GeneID 33826) | 1 | 1.63e6 | 1.52e6 | 1.23e6 | 1.33e6 | inactive |
| CG33225 (GeneID 2768860) | 1 | 5.69e5 | – | 9.70e5 | – | inactive |
| drm (GeneID 49638) | 1 | 1.51e6 | 1.37e6 | 1.09e6 | 1.29e6 | inactive |
| Cpr12A (GeneID 32309) | 1 | 1.64e6 | 1.51e6 | 1.12e6 | 1.26e6 | inactive |
| CG34269 (GeneID 5740713) | 1 | 1.47e6 | 1.47e6 | 9.92e5 | 1.16e6 | inactive |
| CG14985 (GeneID 38470) | 1 | 1.57e6 | 1.50e6 | 1.06e6 | 1.25e6 | inactive |
| CG14985 (GeneID 38470) | 2 | 1.39e6 | 1.25e6 | 1.07e6 | 1.28e6 | inactive |
